Assay results taken from PubChem BioAssay AID252 (DTP/NCI, 2004).
The list is a part of this screen's results and no random one: it gathers some chemical classes. Other doses and runs of a compound may be missing. T/C: endpoint of the treated group in % of that of the vehicle group. For survival time, this PubChem deposit counts one and a half times the control or more as active, and values a quarter to a half above the control carry no call in these data; other NCI protocols may use other cut-offs. Some entries show no survivor count and are marked so; the dose need not have been tolerated. Schedules are NCI's codes, read here as Q, the interval in days (D) or hours (H), X, the number of doses.

Tested on: BDF1 mice, intracerebral L1210 leukemia, survival T/C
Assay: NCI In Vivo Anticancer Drug Screen. Data for tumor model L1210 Leukemia (intracerebral) in B6D2F1 (BDF1) mice
Conditions: T/C endpoint: mean survival time, schedule: Q01DX001 (ip), vehicle: saline, higher T/C = longer survival
Experimental: The antitumor activity of compounds was measured in mice bearing transplantable tumors. Survival or tumor size were measured and the results are expressed as the measurement made in the treated group (T) divided by the measurement made in the vehicle treated control group (C). The tumor model used in this assay is L1210 Leukemia (intracerebral) in B6D2F1 (BDF1) mice

## ClCCNCCCNCCCl
dose: 50.0 mg/kg/injection
  T/C: 107 % of control [survivor count not shown]
dose: 100.0 mg/kg/injection
  T/C: 114 % of control [survivor count not shown]
dose: 200.0 mg/kg/injection
  T/C: 100 % of control [survivor count not shown]
